Experimental findings from article doi:10.1101/2022.09.20.508711 are described below.

Chains of the proteins cited; added tags and fusions are not shown.
UniProt Q8IY92: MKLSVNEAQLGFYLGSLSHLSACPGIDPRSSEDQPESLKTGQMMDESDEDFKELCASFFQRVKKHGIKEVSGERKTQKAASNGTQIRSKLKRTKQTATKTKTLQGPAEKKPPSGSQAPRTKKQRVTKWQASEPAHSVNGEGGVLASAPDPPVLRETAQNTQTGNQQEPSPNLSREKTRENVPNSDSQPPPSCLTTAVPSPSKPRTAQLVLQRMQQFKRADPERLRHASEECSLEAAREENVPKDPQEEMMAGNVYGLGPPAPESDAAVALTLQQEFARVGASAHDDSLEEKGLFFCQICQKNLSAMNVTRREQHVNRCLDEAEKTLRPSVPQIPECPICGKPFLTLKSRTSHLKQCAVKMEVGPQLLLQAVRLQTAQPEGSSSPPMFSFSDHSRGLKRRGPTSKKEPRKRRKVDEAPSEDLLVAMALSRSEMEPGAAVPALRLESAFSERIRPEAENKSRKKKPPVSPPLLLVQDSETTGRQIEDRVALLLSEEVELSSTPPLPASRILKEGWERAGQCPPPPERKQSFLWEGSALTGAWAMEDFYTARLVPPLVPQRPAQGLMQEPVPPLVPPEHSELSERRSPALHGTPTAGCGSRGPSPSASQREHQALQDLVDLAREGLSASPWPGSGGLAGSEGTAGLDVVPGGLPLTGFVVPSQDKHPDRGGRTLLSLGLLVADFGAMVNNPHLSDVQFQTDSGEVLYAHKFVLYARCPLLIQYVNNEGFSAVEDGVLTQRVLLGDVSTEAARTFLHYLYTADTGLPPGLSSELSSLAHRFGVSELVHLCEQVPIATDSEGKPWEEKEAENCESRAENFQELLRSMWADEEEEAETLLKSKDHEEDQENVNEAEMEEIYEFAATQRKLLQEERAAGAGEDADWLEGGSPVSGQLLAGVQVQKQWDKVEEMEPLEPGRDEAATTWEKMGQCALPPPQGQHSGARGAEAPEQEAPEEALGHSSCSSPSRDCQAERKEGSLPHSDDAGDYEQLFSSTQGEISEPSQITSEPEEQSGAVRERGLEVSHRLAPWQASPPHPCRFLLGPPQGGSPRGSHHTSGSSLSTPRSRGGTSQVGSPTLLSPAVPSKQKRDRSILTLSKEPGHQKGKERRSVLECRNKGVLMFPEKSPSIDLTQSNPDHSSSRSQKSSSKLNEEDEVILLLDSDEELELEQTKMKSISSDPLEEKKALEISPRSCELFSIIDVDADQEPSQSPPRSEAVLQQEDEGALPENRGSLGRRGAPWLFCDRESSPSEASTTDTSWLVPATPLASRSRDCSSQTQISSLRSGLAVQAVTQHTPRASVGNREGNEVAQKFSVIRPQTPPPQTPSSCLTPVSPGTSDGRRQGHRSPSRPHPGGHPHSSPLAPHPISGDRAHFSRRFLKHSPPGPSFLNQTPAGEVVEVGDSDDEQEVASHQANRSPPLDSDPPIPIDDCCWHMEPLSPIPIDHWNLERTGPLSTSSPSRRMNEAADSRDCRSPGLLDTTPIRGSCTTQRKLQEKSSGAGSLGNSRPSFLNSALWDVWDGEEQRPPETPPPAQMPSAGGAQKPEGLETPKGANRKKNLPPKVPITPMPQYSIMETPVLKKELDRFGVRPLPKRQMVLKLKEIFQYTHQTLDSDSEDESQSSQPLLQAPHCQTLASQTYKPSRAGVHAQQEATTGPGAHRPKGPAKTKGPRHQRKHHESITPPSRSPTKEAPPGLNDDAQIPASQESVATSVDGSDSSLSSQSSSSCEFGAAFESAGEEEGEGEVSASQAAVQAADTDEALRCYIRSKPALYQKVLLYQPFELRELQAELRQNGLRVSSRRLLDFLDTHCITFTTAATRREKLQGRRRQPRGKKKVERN

Results are given in words; binding and its absence hold for the method and conditions named. In cells and extracts the contact can be indirect. Some entries that bind do so weakly or less than the wild type.

The assay has as its target YFP-SLX4 (human) (UniProt Q8IY92). Nature of the assay: co-IP.

B1: EME1 (endogenous, HeLa) (protein, UniProt Q96AY2 1-570)
chain: MALKKSSPSLDSGDSDSEELPTFAFLKKEPSSTKRRQPEREEKIVVVDISDCEASCPPAPELFSPPVPEIAETVTQTQPVRLLSSESEDEEEFIPLAQRLTCKFLTHKQLSPEDSSSPVKSVLDHQNNEGASCDWKKPFPKIPEVPLHDTPERSAADNKDLILDPCCQLPAYLSTCPGQSSSLAVTKTNSDILPPQKKTKPSQKVQGRGSHGCRQQRQARQKESTLRRQERKNAALVTRMKAQRPEECLKHIIVVLDPVLLQMEGGGQLLGALQTMECRCVIEAQAVPCSVTWRRRAGPSEDREDWVEEPTVLVLLRAEAFVSMIDNGKQGSLDSTMKGKETLQGFVTDITAKTAGKALSLVIVDQEKCFSAQNPPRRGKQGANKQTKKQQQRQPEASIGSMVSRVDAEEALVDLQLHTEAQAQIVQSWKELADFTCAFTKAVAEAPFKKLRDETTFSFCLESDWAGGVKVDLAGRGLALVWRRQIQQLNRVSLEMASAVVNAYPSPQLLVQAYQQCFSDKERQNLLADIQVRRGEGVTSTSRRIGPELSRRIYLQMTTLQPHLSLDSAD
For the molecule B1, the binding result is listed as “binds”.
